Results as given in paper PMC8703407.
No constants are given. Whether binding was seen depends on the method and setting. Binding seen in cells or lysates may run through a third protein. Some entries that bind do so weakly or less than the wild type. For some assays here: Tags and fused reporters may be left off the sequences shown. Each block holds one binder with its values, some of them ahead of it.

Amino acid sequences for entries named in this document (tags omitted). Residues count along the entry.
UniProt O95793, residues 82-577: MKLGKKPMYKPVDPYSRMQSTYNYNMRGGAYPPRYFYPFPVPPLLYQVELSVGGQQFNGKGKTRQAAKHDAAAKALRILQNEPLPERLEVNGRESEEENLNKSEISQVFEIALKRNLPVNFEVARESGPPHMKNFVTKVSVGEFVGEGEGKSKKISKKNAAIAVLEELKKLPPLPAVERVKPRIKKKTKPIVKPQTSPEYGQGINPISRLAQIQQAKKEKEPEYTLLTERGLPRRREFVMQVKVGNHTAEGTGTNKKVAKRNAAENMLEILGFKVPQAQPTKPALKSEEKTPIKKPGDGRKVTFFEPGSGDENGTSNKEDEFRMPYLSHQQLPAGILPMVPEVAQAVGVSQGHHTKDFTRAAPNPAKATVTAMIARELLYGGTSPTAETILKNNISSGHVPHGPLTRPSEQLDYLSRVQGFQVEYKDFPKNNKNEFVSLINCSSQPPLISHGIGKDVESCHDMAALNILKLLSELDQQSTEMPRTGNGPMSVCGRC

Columns and labels:
[1] = target: Staufen-1 HA (pcDNA3-RSV-Stau1 55 HA) (UniProt O95793); assay: co-IP
APOBEC3G HA, Q9HC16 = assay: co-IP; settings: remark: other sources report otherwise

binding [1]: binds
B1: Staufen-2 (detected with anti-Staufen-2 antibody in HEK293T lysate) (protein, UniProt Q9NUL3 1-570)
chain: MANPKEKTAMCLVNELARFNRVQPQYKLLNERGPAHSKMFSVQLSLGEQTWESEGSSIKKAQQAVANKALTESTLPKPVQKPPKSNVNNNPGSITPTVELNGLAMKRGEPAIYRPLDPKPFPNYRANYNFRGMYNQRYHCPVPKIFYVQLTVGNNEFFGEGKTRQAARHNAAMKALQALQNEPIPERSPQNGESGKDVDDDKDANKSEISLVFEIALKRNMPVSFEVIKESGPPHMKSFVTRVSVGEFSAEGEGNSKKLSKKRAATTVLQELKKLPPLPVVEKPKLFFKKRPKTIVKAGPEYGQGMNPISRLAQIQQAKKEKEPDYVLLSERGMPRRREFVMQVKVGNEVATGTGPNKKIAKKNAAEAMLLQLGYKASTNLQDQLEKTGENKGWSGPKPGFPEPTNNTPKGILHLSPDVYQEMEASRHKVISGTTLGYLSPKDMNQPSSSFFSISPTSNSSATIARELLMNGTSSTAEAIGLKGSSPTPPCSPVQPSKQLEYLARIQGFQAALSALKQFSEQGLDPIDGAMNIEKGSLEKQAKHLREKADNNQAPPGSIAQDCKKSNSAV

binding (APOBEC3G HA, Q9HC16): binds
B2: APOBEC3G HA, Q9HC16 1-384 (protein)
chain: MKPHFRNTVERMYRDTFSYNFYNRPILSRRNTVWLCYEVKTKGPSRPPLDAKIFRGQVYSELKYHPEMRFFHWFSKWRKLHRDQEYEVTWYISWSPCTKCTRDMATFLAEDPKVTLTIFVARLYYFWDPDYQEALRSLCQKRDGPRATMKIMNYDEFQHCWSKFVYSQRELFEPWNNLPKYYILLHIMLGEILRHSMDPPTFTFNFNNEPWVRGRHETYLCYEVERMHNDTWVLLNQRRGFLCNQAPHKHGFLEGRHAELCFLDVIPFWKLDLDQDYRVTCFTSWSPCFSCAQEMAKFISKNKHVSLCIFTARIYDDQGRCQEGLRTLAEAGAKISIMTYSEFKHCWDTFVDHQGCPFQPWDGLDEHSQDLSGRLRAILQNQEN
